In the assay the target is T1, CusB spin labeled at A236C and A248C positions (E. coli) (UniProt P77239).
T1 sequence (chain, MTSSL nitroxide spin label on the cysteines at 236 and 248): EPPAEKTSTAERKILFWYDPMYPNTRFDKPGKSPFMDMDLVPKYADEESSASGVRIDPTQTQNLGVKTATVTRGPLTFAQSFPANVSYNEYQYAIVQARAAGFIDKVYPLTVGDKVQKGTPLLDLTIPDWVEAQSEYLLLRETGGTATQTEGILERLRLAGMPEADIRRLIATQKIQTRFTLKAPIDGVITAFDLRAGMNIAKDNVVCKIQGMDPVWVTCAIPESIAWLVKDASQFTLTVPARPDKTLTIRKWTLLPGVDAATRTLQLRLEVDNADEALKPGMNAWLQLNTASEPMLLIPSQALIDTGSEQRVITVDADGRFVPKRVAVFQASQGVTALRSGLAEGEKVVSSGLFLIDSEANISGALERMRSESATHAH
In words: DEER (pulsed EPR) distance measurements with site-directed spin labeling; CusB spin labeled (MTSSL) at A236C and A248C, 0.01-0.02 mM; apo, holo (Cu(I):CusB 3:1), holo + pep5, + pep8 with Cu(I); Q-band, 50 K; binding inferred from the distance distributions; both purified.

No constants are given. Whether binding was seen depends on the method and setting. Some binding calls cover weakened binding; strength is not graded here.

This passage reports binding results from article PMC6936879, “Inhibiting the copper efflux system in microbes as a novel approach for developing antibiotics” (PLoS ONE, 2019).

B1: CusB spin labeled at A236C and A248C positions (protein, UniProt P77239 29-407)
chain: EPPAEKTSTAERKILFWYDPMYPNTRFDKPGKSPFMDMDLVPKYADEESSASGVRIDPTQTQNLGVKTATVTRGPLTFAQSFPANVSYNEYQYAIVQARAAGFIDKVYPLTVGDKVQKGTPLLDLTIPDWVEAQSEYLLLRETGGTATQTEGILERLRLAGMPEADIRRLIATQKIQTRFTLKAPIDGVITAFDLRAGMNIAKDNVVCKIQGMDPVWVTCAIPESIAWLVKDASQFTLTVPARPDKTLTIRKWTLLPGVDAATRTLQLRLEVDNADEALKPGMNAWLQLNTASEPMLLIPSQALIDTGSEQRVITVDADGRFVPKRVAVFQASQGVTALRSGLAEGEKVVSSGLFLIDSEANISGALERMRSESATHAH
modifications: MTSSL nitroxide spin label on the cysteines at 236 and 248
Take B1: the binding entry was “binds”.

B2: pep5 (peptide)
peptide: IQGMD
modifications: C-terminal amide
Regarding B2, the binding entry is listed as “binds”.
